Results published in PubChem BioAssay AID2685 (National Center for Advancing Translational Sciences (NCATS), 2010).
This is one part of the list. These are further read-outs of the screen, such as a control signal, another cell line or another target. No call is given for them. Most of these compounds were active or inconclusive in the main read-out, so they are no random draw. Words in brackets tell the shape of the fitted curve; partial curves, single points and poor fits give uncertain potencies.

Assay: qHTS Assay for Lipid Storage Modulators in Drosophila S3 Cells;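 for cell number change: cells counted by Cell Tracker Red CMTPX staining in the red channel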
Details: BODIPY lipid droplet fluorescence, 18-24 h; for cell number change: measured here: cell count max response, cells fed with added oleic acid
Summary of the method: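 Drosophila S3 cells loaded with oleic acid (400 uM, as added) and compounds at several concentrations; lipid droplets imaged by 488-nm laser-scanning cytometry, 500–530 nm intensity and object ratio to cell channel. Percent activity normalized to 20 uM Triacsin C.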

[1] = measured here: lipid fluorescence (Fed channel) AC50, cells fed with added oleic acid
[2] = measured here: cell number channel AC50, cells fed with added oleic acid

| Compound | cell number change [%] | AC50 [1] | AC50 [2] |
| --- | --- | --- | --- |
| COc1cccc(N2CCN(C(=O)CCCCCNc3nc(=S)[nH]c4ccccc34)CC2)c1 | -8.21 | – | – |
| CC(Oc1ccc(Cl)cc1)C(=O)Nc1ccc(S(=O)(=O)Nc2nccs2)cc1 (configuration not stated) | 6.09 | 29.1 µM [falling, partial curve] | – |
| O=C(Cn1c(=O)cnc2ccccc21)Nc1cccc(S(=O)(=O)N2CCOCC2)c1 | 32.7 | – | 10.3 µM [rising, single point] |
| COc1cccc(/C=C/C(=O)NCCc2ccc(OC)c(OC)c2)c1 | -37.3 | – | 11.6 µM [falling, single point] |
| c1ccc2c3c([nH]c2c1)CCNC3 | 15.3 | – | – |
| O=C(c1ccc2c(c1)OCO2)N(c1ccccc1)C1C=CS(=O)(=O)C1 (configuration not stated) | 6.9 | 2.59 µM [rising, single point] | – |
| O=C(Cc1ccccc1F)NC1CCSc2ccccc21 (configuration not stated) | 35.3 | 29.1 µM [rising, single point] | – |
| Cc1ccc(C(=O)NC(=S)N2CCN(C)CC2)cc1 | -24.6 | 0.82 µM [falling, full curve] | 0.13 µM [falling, full curve, poor fit] |
| CN(C(=O)C(C)(C)C)c1ccc(OCC(=O)N2CCc3ccccc3C2)cc1 | 8.97 | – | – |
| Cc1cc(NC(=O)CSc2nnnn2C)n(-c2ccccc2)n1 | 37.9 | 13 µM [rising, partial curve] | 9.2 µM [rising, partial curve] |
| O=C(CSc1nnc(COc2ccc(Cl)cc2Cl)o1)Nc1ccccn1 | 22.2 | 29.1 µM [rising, single point] | – |
| NS(=O)(=O)c1ccc(NC2=CC(=O)C(=O)c3ccccc32)cc1 | -41.4 | – | 18.4 µM [falling, partial curve] |
| COP(=O)(CC(=O)c1ccccc1)CC(=O)c1ccccc1 | -42.3 | 29.1 µM [falling, single point] | – |
| CCOc1ccc(NC(=S)NNC(=S)Nc2cccc(C(F)(F)F)c2)cc1 | -36.9 | 23.1 µM [falling, single point] | 23.1 µM [falling, single point] |
| Cc1ccc(CN2CC(C(=O)Nc3ccccc3N3CCCC3)CC2=O)cc1 (configuration not stated) | 63.9 | – | 23.1 µM [rising, partial curve] |
| CCOC(=O)CC1C(=O)NCCN1C(=O)c1cccc(C(F)(F)F)c1 (configuration not stated) | 0.595 | 23.1 µM [falling, single point] | – |
| O=[N+]([O-])c1ccc(Cl)c(NC(=S)N2CCCC2)c1 | 24.6 | – | – |
| COc1cccc(CNC(=O)c2cc3ccccn3n2)c1 | – | 0.00517 µM [rising, full curve, poor fit] | – |
| CCc1ccccc1NC(=O)Cn1nnc(-c2cccnc2)n1 | -9.64 | 18.4 µM [rising, single point] | – |
| CSc1ccccc1NC(=O)CO/N=C(\C)c1cc2ccccc2o1 | -32.5 | – | 1.03 µM [falling, full curve, poor fit] |

| Compound | cell number change [%] | AC50 [1] | AC50 [2] |
| --- | --- | --- | --- |
| O=Cc1cccn1-c1ncc(Br)cn1 | 21.3 | – | – |
| NS(=O)(=O)c1cccc(NC(=O)c2cccc(-c3ccc(O)cc3)c2)c1 | 21 | 6.51 µM [falling, single point] | – |
| CSc1nnc(SCc2nc3sc(C(=O)O)c(C)c3c(=O)[nH]2)s1 | -43.2 | 20.6 µM [falling, single point] | 16.4 µM [falling, single point] |
| CCOC(=O)N1CCC(NCCNC(=O)c2cccc(F)c2)CC1 | 2.52 | 0.0058 µM [falling, full curve, poor fit] | 0.00461 µM [falling, full curve, poor fit] |
| O=Cc1cc(N=Nc2ccccc2Cl)ccc1O | -51.5 | 20.6 µM [falling, partial curve] | 18.4 µM [falling, single point] |
| O=c1oc(CCCO)cc2ccc(/C=C/c3cccc([N+](=O)[O-])c3)cc12 | -37.6 | – | 4.61 µM [falling, single point] |
| Cc1nc2ccccc2c2c1CC(C(C)(Cl)Br)O2 (configuration not stated) | -43 | 16.4 µM [falling, partial curve] | 29.1 µM [falling, single point] |
| CS(=O)(=O)Nc1ccc(C(=O)Nc2ccccc2Sc2ccccc2)cc1 | 10.9 | 1.3 µM [falling, single point] | 0.82 µM [falling, single point] |
| CCCSC(=O)N(CC)CC(=O)Nc1c(CC)cccc1CC | -6.49 | – | – |
| CN(Cc1ccccc1)C1=CC(=[N+]2CCCC2)CC(C)(C)C1 | -22.5 | 29.1 µM [falling, single point] | – |
| CC1CC(C)CN(S(=O)(=O)c2ccc(NC(=O)CCNC(=O)c3ccc([N+](=O)[O-])cc3)cc2)C1 (configuration not stated) | 1.76 | – | – |
| Cc1cc2c(nn1)CCC/C2=N\O | -39.6 | 16.4 µM [falling, single point] | 29.1 µM [falling, single point] |
| Cc1cc(OC(C)C(=O)N2CCN(c3ccc(F)cc3)CC2)c2c(C)c(C)c(=O)oc2c1 (configuration not stated) | 20.3 | 29.1 µM [rising, single point] | – |
| CC(C)(C)c1cc[n+](-c2[nH]c(=O)sc2/C=N/NC(=O)c2ccccc2[O-])cc1 | 5.71 | – | – |
| Cc1cc(S(=O)(=O)Nc2nc(CN3CCOCC3)nc3sc4c(c23)CCC4)cc(C)c1C | 17.5 | – | – |
| COc1ccccc1C(=O)Nc1ccc(C(=O)Nc2ccccc2C(=O)O)cc1 | 1.62 | – | – |
| CC(=O)Nc1ccc(-c2csc(NNC(=O)c3ccccc3)n2)cc1 | 19.1 | 29.1 µM [rising, single point] | – |
| CNc1c(NS(=O)(=O)c2ccc(OC)c(Cl)c2)c(=O)oc2ccccc12 | – | 14.6 µM [falling, partial curve] | – |
| O=C1Nc2ccccc2C(O)(C(=O)NC2CC2)N1c1ccc(Cl)c(Cl)c1 (configuration not stated) | -5.3 | – | – |
| O=C(CN(CCc1ccccc1)S(=O)(=O)c1ccc(Br)cc1)N/N=C/c1ccc2c(c1)OCO2 | 25.8 | 0.291 µM [rising, full curve, poor fit] | 0.411 µM [rising, full curve, poor fit] |

A draw from above in order of molecular weight, descending.

| Compound | cell number change [%] | AC50 [1] | AC50 [2] |
| --- | --- | --- | --- |
| CC(Oc1ccc(Cl)cc1)C(=O)Nc1ccc(S(=O)(=O)Nc2nccs2)cc1 (configuration not stated) | 6.09 | 29.1 µM [falling, partial curve] | – |
| O=C(Cn1c(=O)cnc2ccccc21)Nc1cccc(S(=O)(=O)N2CCOCC2)c1 | 32.7 | – | 10.3 µM [rising, single point] |
| O=C(CSc1nnc(COc2ccc(Cl)cc2Cl)o1)Nc1ccccn1 | 22.2 | 29.1 µM [rising, single point] | – |
